According to PubChem BioAssay AID1671190 (National Center for Advancing Translational Sciences (NCATS), 2021):
Several values for one entry are separate records, joined by “and”; a condition that tells them apart may be missing. Equal entries are not always repeated. In all, about 580,000 compounds went through this assay and about 6,100 (1.1%) were called active. Inconclusive results, whose numbers are uncertain, are shown with a selection of clear calls. Calls come from the whole dose curve; as a rule, active = well fitted inhibition curve with a large enough effect; inconclusive = small, poorly fitted or top-dose-only effect, or another doubt; inactive = no such curve, though single readings can be large or run the other way. Potencies of inconclusive entries are doubtful fits and often do not repeat.

By UniProt entry, the sequences of proteins in these tests, tags left out. Where a name states a change or a piece, a line headed by the entry shows the natural chain unless it says otherwise.
UniProt P18054: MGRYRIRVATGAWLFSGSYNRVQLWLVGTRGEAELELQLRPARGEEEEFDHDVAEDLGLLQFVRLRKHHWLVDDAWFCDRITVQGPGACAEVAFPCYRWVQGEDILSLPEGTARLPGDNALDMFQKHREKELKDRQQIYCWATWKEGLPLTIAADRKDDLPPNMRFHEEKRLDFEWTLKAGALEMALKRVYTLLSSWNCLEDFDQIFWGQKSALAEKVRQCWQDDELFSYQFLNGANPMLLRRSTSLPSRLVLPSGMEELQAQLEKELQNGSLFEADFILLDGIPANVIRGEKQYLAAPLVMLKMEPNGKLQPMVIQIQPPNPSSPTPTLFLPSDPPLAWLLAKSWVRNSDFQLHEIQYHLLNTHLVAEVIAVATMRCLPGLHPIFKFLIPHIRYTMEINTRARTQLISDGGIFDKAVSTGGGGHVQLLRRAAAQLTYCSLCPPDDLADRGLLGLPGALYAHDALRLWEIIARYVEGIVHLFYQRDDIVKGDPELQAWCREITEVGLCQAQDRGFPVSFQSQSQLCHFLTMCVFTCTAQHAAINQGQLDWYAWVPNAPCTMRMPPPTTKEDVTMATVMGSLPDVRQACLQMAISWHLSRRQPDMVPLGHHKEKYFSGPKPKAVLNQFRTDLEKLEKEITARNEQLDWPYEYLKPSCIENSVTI

Target: Polyunsaturated fatty acid lipoxygenase ALOX12 (Homo sapiens) (UniProt P18054)
Assay: Primary qHTS assay for inhibitors of human arachidonate 12S-lipoxygenase (ALOX12): Round 2
Settings: purified 12hLO, xylenol orange hydroperoxide absorbance; activity change, negative = inhibition: at 108 µM (top of the series) unless noted
Summary of the method: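 Purified human 12hLO at 150 nM in 25 mM Hepes, 0.01% Triton X-100, pH 7.0, preincubated 15 min at room temperature with compound. Reaction started with 40 uM arachidonic acid, 30 min at room temperature. Hydroperoxide measured by Fe-xylenol orange, 573/405 nm absorbance ratio.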
% is set by controls: 0 for no effect and ±100 for the full control effect; potency is the fitted concentration of half-maximal effect.

Structure (SMILES)	Potency	activity change, negative = inhibition
CSCC(=O)N[C@H]1CCN2C(=O)c3ccc(Cl)cc3NC(=O)[C@H]12	inconclusive: 12.6 µM [inhibitor, full curve]	
Cc1nc2ccn(Cc3cccs3)c(=O)c2cc1C(=O)N1CCN(c2ccccc2F)CC1	inactive	
Cc1csc(SCC(=O)c2ccc(O)cc2O)n1	inconclusive: 1.78 µM [inhibitor, full curve]	
COc1cc(=C2C=c3ccccc3=N2)[nH]c1=Cc1[nH]c(C)cc1C	inconclusive: 21.7 µM [inhibitor, partial curve]	
O=C(Nc1c(-c2ccc(F)cc2)nc2sccn12)c1ccc(S(=O)(=O)N2CCOCC2)cc1	inactive	
CC(C)CC(COCc1cccc(C(F)(F)F)c1)N1CCN(C(=O)c2cccc(C(F)(F)F)c2)CCC1=O (stereo not given)	inconclusive: 50.1 µM [inhibitor, partial curve, poor fit]	
Cc1ccc(NS(=O)(=O)c2ccc3[nH]c4c(c3c2)CCCC4)cc1N(C)C	inconclusive: 50.1 µM [inhibitor, partial curve, poor fit]	
CCOc1ccc(C2C(C(=O)c3ccc(C)o3)=C(O)C(=O)N2c2nc(C)c(C(=O)OC)s2)cc1 (stereo not given)	inconclusive: 35.5 µM [inhibitor, partial curve, poor fit]	
C=CCNC(=S)Nc1sc2c(c1C(=O)OCC)CC(C)(CC)OC2 (stereo not given)	inconclusive: 39.8 µM [inhibitor, partial curve, poor fit]	
Cc1ccc(C(=O)NCC(c2ccco2)N2CCc3ccccc32)cc1 (stereo not given)	inconclusive: 56.2 µM [inhibitor, partial curve, poor fit]	
CC(C)CNC(=O)C1CCN(c2ncnc3sc4c(c23)CCCC4)CC1	inconclusive: 100 µM [inhibitor, partial curve, poor fit]	
O=C(CCC(=O)OCC(=O)c1cccc([N+](=O)[O-])c1)NC1CCCCC1	inconclusive: 112 µM [inhibitor, single point]	
CN(C)c1ccc(CN[C@H]2C[C@H]3C(=O)NC[C@@H](CCC(=O)Nc4ccccc4)N3C2)cc1	inconclusive: 7.94 µM [inhibitor, full curve]	
CS(=O)(=O)c1ccc(-c2nc(C(=O)NCc3cccnc3)n3ccncc23)cc1		inactive: -4.75% [at 6.33 µM]
CC1CCN(S(=O)(=O)c2ccc3c(c2)N(CC(=O)NCCc2ccccc2)C(=O)CO3)CC1	inconclusive: 50.1 µM [inhibitor, partial curve, poor fit]	
CC(C)(C)S(=O)N1Cc2cc(C(=O)N3CCOCC3)nc(-c3cccc(Br)c3)c2[C@@H]1CCO (stereo not given in full)	active: 5.01 µM	
COc1ccc(NC(=S)NCCCCCC(=O)C[N+](=O)[O-])cc1	inconclusive: 44.7 µM [inhibitor, partial curve, poor fit]	
Cn1cccc1CN1CCC[C@]2(N[C@H](c3ccccc3)[C@@H]3C(=O)N(Cc4ccccc4)C(=O)[C@@H]32)C1=O	active: 10 µM	
Cc1cccc(N=C2NC(=O)/C(=C\c3cccs3)S2)c1	inconclusive: 126 µM [inhibitor, partial curve, poor fit]	
CCC[C@H]1CN(Cc2ccccc2C#N)C[C@@H]1NS(C)(=O)=O	inconclusive: 12.6 µM [inhibitor, partial curve, poor fit]	
NS(=O)(=O)c1cccc(Nc2nc3ccccc3nc2NS(=O)(=O)c2ccc(Cl)cc2)c1	inconclusive: 44.7 µM [inhibitor, partial curve, poor fit]	
O=c1[nH]c(CSc2nnc(-c3ccco3)n2C2CCCCC2)nc2ccccc12	inactive	

Structure (SMILES)	Potency	activity change, negative = inhibition
Cc1ccc(NC(=O)CSc2nnc(C3CC3)n2C)cc1S(=O)(=O)N1CCCCC1	inconclusive: 112 µM [inhibitor, single point]	
CCOC(=O)CC(=O)CSc1nc2ccsc2c(=O)n1Cc1ccccc1	inconclusive: 3.16 µM [inhibitor, partial curve, poor fit]	
CCC(=O)N1CCc2cc(Br)cc(S(=O)(=O)N3CCN(c4ccccc4OC)CC3)c21	inactive	
Cc1ccc(CNC(=O)c2nc(SCc3ccccc3C)ncc2Cl)cc1	inconclusive: 1.12 µM [inhibitor, full curve, poor fit]	
COc1ccc(-c2oc3c(CC=C(C)C)c(O)cc(O)c3c(=O)c2O)cc1	inconclusive: 0.385 µM [inhibitor, full curve, poor fit]	
Cc1ccnc2nc(C(=O)OCC(=O)c3c[nH]c4ccccc34)nn12	inactive	
Cc1ccc(S(=O)(=O)N2CCCCC2)cc1C(=O)OC1CCCCC1=O (stereo not given)	inconclusive: 100 µM [inhibitor, single point]	
COCc1nnc(NC(=O)c2cccc3c2ccn3C)s1	inactive	
Cn1nnc(NC(=O)/C=C/c2ccco2)n1	inconclusive: 79.4 µM [inhibitor, partial curve, poor fit]	
CC(C)CCNC(=O)COc1ccc2c3c(c(=O)oc2c1)CCC3	inactive	
O=C1C(Cl)=C(NCCN2CCOCC2)C(=O)c2ncccc21	inconclusive: 1.37 µM [inhibitor, single point]	
COc1ccc(Oc2ncnc3sccc23)cc1	inconclusive: 89.1 µM [inhibitor, single point]	
O=C(NC1CCCc2c1cnn2-c1cc(F)cc(F)c1)c1ccncc1 (stereo not given)	inactive	
Cc1ccc(Nc2nc(CN3CCN(S(=O)(=O)c4ccccc4)CC3)cs2)cc1	inconclusive: 50.1 µM [inhibitor, single point]	
Fc1ccc(C2Cn3nnc(-c4nc(-c5ccc(Cl)cc5)no4)c3CO2)cc1 (stereo not given)	inactive	
CC(=O)Nc1ccc(NC(=O)CC2C(=O)Nc3nc(-c4ccccc4)nn32)cc1 (stereo not given)	inactive	
O=c1[nH]cnc2c1nc(SCc1cccc(Cl)c1)n2-c1ccccc1	inactive	
COc1ccc(OCC(=O)NC(=S)Nc2ccc(S(=O)(=O)Nc3cc(C)on3)cc2)cc1	inconclusive: 39.8 µM [inhibitor, partial curve]	
COc1cc(CNC(=O)c2nccnc2N)ccc1O	inactive	
CCc1ccc(-c2csc(Nc3ccc(C(=O)O)c(O)c3)n2)cc1	inconclusive: 50.1 µM [inhibitor, partial curve, poor fit]	
O=S(=O)(Cc1ccccc1)N1CCN(Cc2ccc(Br)cc2)CC1	inconclusive: 0.501 µM [inhibitor, full curve, poor fit]	
CC12CC3CC(C)(C1)CC(C(=O)NC(=S)N1CCOCC1)(C3)C2	inactive	

Fetched by structure from the entries so far:
Structure (SMILES)	Potency	activity change, negative = inhibition
Cc1ccc(CNC(=O)c2nc(SCc3ccccc3C)ncc2Cl)cc1	inconclusive: 1.12 µM [inhibitor, full curve, poor fit]	
Cc1ccc(Nc2nc(CN3CCN(S(=O)(=O)c4ccccc4)CC3)cs2)cc1	inconclusive: 50.1 µM [inhibitor, single point]	
CC12CC3CC(C)(C1)CC(C(=O)NC(=S)N1CCOCC1)(C3)C2	inactive	
COc1cc(CNC(=O)c2nccnc2N)ccc1O	inactive	

Continued:

Structure (SMILES)	Potency	activity change, negative = inhibition
NC(=O)c1nsc(C(=O)N(Cc2cccnc2)C(C(=O)NC2CCCCC2)c2ccc(F)cc2)c1N (stereo not given)	inconclusive: 100 µM [inhibitor, single point]	
COc1ccc(OC)c2c(C)cc(N3CCN(C(=O)c4ccc(Cl)cc4)CC3)nc12	inconclusive: 31.6 µM [inhibitor, partial curve]	
Cc1ccc(-c2cc(C(=O)Nc3ccc(S(=O)(=O)N4CCCCC4C)cc3)no2)cc1 (stereo not given)	inactive	
CN(C)CCNC(=O)c1nc2nc(-c3ccccc3)c(-c3ccccc3F)cc2n1C	inconclusive: 89.1 µM [inhibitor, partial curve]	
C=C(C)C1CC=C(C)C(=NNC(=O)c2ccncc2)C1 (stereo not given)	inactive	
CC(C)=C1C(=O)NN(c2cccc(Cl)c2)C1=O	inconclusive: 44.7 µM [inhibitor, partial curve, poor fit]	
COc1ccc(OC)c(NC(=O)CN2C(=O)C(c3ccccc3)=NC23CCCC3)c1	inactive	
O=C(Nc1nc(=S)ss1)c1ccc(Cl)cc1Cl	inconclusive: 35.5 µM [inhibitor, partial curve, poor fit]	
CCCCSCCCNC(=O)Nc1ccc(CC)cc1	inconclusive: 39.8 µM [inhibitor, partial curve, poor fit]	
Cc1ccc(NC(=O)CSC2=Nc3ccccc3C3CC=NN23)c(C)c1 (stereo not given)	inconclusive: 35.5 µM [inhibitor, single point]	
CCN1C(=O)[C@H]2[C@@H](c3ccc(-c4ccc(OC)cc4)c(OC)c3)N[C@@](CC(C)C)(C(=O)OC)[C@H]2C1=O	inactive	
CC(C)Oc1ccc(C(CCN)C2CCCCC2)cc1 (stereo not given)	inconclusive: 1 µM [inhibitor, full curve, poor fit] and inconclusive: 44.7 µM [inhibitor, partial curve, poor fit]	
CNS(=O)(=O)c1ccc2c3c(cccc13)C(=O)N2C	active: 8.91 µM	
COc1ccc(C(=O)CC(C(=O)O)c2ccc(OC)c(OC)c2)cc1OC (stereo not given)	inconclusive: 89.1 µM [inhibitor, single point]	
Cc1ccc(OCC(=O)N/N=C/c2cccnc2)cc1C	inconclusive: 112 µM [inhibitor, single point]	
Cc1ccccc1-n1c(=O)n(CCc2ccccc2)c(=O)c2[nH]cnc21	inconclusive: 126 µM [inhibitor, single point]	
O=C(c1ccco1)N(CCC(c1ccccc1)c1ccco1)Cc1ccc(F)cc1 (stereo not given)	inconclusive: 7.94 µM [inhibitor, full curve, poor fit]	
Cc1cc(=O)oc2c(CN3CCC(C)CC3)c(O)c(Cl)cc12	inconclusive: 112 µM [inhibitor, single point]	
COCCn1c(=O)n([C@H]2CCCN(C(=O)c3cnc(C)cn3)C2)c2ncccc21	inactive	
O=C(Nc1ccccc1)Nc1cc(Cl)cc(Cl)c1	inconclusive: 79.4 µM [inhibitor, single point]	
COc1cc(-c2n[nH]c(=S)n2C(C)c2ccccc2)cc(OC)c1OC (stereo not given)	inconclusive: 44.7 µM [inhibitor, partial curve, poor fit]	
